In PubChem BioAssay AID186 (DTP/NCI, 2004):
Shown are survivors of the treated group in tumour-free mice. Survivors were counted at the toxicity check, usually on the fifth day, unless a day is given; later deaths do not show. Schedules are NCI's codes, read here as Q, the interval in days (D) or hours (H), X, the number of doses. Some entries were tested several times; their values stand side by side, smallest first.

System: B6D2F1 mice, nontumored toxicity test, survival
Assay: NCI In Vivo Anticancer Drug Screen. Data for tumor model Nontumored Animals (Toxicity Test) in B6D2F1 (BDF1) mice
Conditions: vehicle: saline

C[C@H](CN1CC(=O)NC(=O)C1)N1CC(=O)NC(=O)C1
survivor count (dose: 8.0 mg/kg/injection, schedule: Q01DX009 (ip)): 7 of 7 and 8 of 8
survivor count (dose: 8.0 mg/kg/injection, schedule: Q01DX009 (oral)): 7 of 7 and 8 of 8
survivor count (dose: 8.0 mg/kg/injection, schedule: Q01DX009 (sc)): 8 of 8
survivor count (dose: 8.0 mg/kg/injection, schedule: Q03HX016 (ip)): 8 of 8
survivor count (dose: 8.0 mg/kg/injection, schedule: Q03HX024 (ip)): 8 of 8
survivor count (dose: 16.0 mg/kg/injection, schedule: Q01DX009 (ip)): 8 of 8
survivor count (dose: 16.0 mg/kg/injection, schedule: Q01DX009 (oral)): 8 of 8
survivor count (dose: 16.0 mg/kg/injection, schedule: Q01DX009 (sc)): 8 of 8
survivor count (dose: 16.0 mg/kg/injection, schedule: Q03HX016 (ip)): 8 of 8
survivor count (dose: 16.0 mg/kg/injection, schedule: Q03HX024 (ip)): 8 of 8
survivor count (dose: 32.0 mg/kg/injection, schedule: Q01DX009 (ip)): 8 of 8
survivor count (dose: 32.0 mg/kg/injection, schedule: Q01DX009 (oral)): 7 of 8 and 8 of 8
survivor count (dose: 32.0 mg/kg/injection, schedule: Q01DX009 (sc)): 8 of 8
survivor count (dose: 32.0 mg/kg/injection, schedule: Q03HX016 (ip)): 7 of 8
survivor count (dose: 32.0 mg/kg/injection, schedule: Q03HX024 (ip)): 8 of 8
survivor count (dose: 64.0 mg/kg/injection, schedule: Q01DX009 (ip)): 8 of 8
survivor count (dose: 64.0 mg/kg/injection, schedule: Q01DX009 (oral)): 8 of 8
survivor count (dose: 64.0 mg/kg/injection, schedule: Q01DX009 (sc)): 8 of 8
survivor count (dose: 64.0 mg/kg/injection, schedule: Q03HX016 (ip)): 4 of 8
survivor count (dose: 64.0 mg/kg/injection, schedule: Q03HX024 (ip)): 7 of 8
survivor count (dose: 64.0 mg/kg/injection, schedule: Q04DX003 (ip)): 8 of 8
survivor count (dose: 64.0 mg/kg/injection, schedule: Q04DX003 (sc)): 8 of 8
survivor count (dose: 64.0 mg/kg/injection, schedule: Q08DX002 (ip)): 8 of 8
survivor count (dose: 128.0 mg/kg/injection, schedule: Q01DX009 (oral)): 8 of 8
survivor count (dose: 128.0 mg/kg/injection, schedule: Q01DX009 (sc)): 8 of 8
survivor count (dose: 128.0 mg/kg/injection, schedule: Q03HX016 (ip)): 7 of 8
survivor count (dose: 128.0 mg/kg/injection, schedule: Q03HX024 (ip)): 8 of 8
survivor count (dose: 128.0 mg/kg/injection, schedule: Q04DX003 (ip)): 8 of 8
survivor count (dose: 128.0 mg/kg/injection, schedule: Q04DX003 (sc)): 8 of 8
survivor count (dose: 128.0 mg/kg/injection, schedule: Q08DX002 (ip)): 8 of 8
survivor count (dose: 256.0 mg/kg/injection, schedule: Q04DX003 (ip)): 8 of 8
survivor count (dose: 256.0 mg/kg/injection, schedule: Q04DX003 (oral)): 8 of 8
survivor count (dose: 256.0 mg/kg/injection, schedule: Q04DX003 (sc)): 8 of 8
survivor count (dose: 256.0 mg/kg/injection, schedule: Q08DX002 (ip)): 8 of 8
survivor count (dose: 512.0 mg/kg/injection, schedule: Q04DX003 (ip)): 8 of 8
survivor count (dose: 512.0 mg/kg/injection, schedule: Q04DX003 (oral)): 8 of 8
survivor count (dose: 512.0 mg/kg/injection, schedule: Q04DX003 (sc)): 8 of 8
survivor count (dose: 512.0 mg/kg/injection, schedule: Q08DX002 (ip)): 8 of 8
survivor count (dose: 1024.0 mg/kg/injection, schedule: Q04DX003 (ip)): 8 of 8
survivor count (dose: 1024.0 mg/kg/injection, schedule: Q04DX003 (oral)): 8 of 8
survivor count (dose: 1024.0 mg/kg/injection, schedule: Q04DX003 (sc)): 8 of 8
survivor count (dose: 1024.0 mg/kg/injection, schedule: Q08DX002 (ip)): 8 of 8
survivor count (dose: 2048.0 mg/kg/injection, schedule: Q04DX003 (oral)): 7 of 8 and 8 of 8
